According to the supplement of paper PMC8728848:
The list shows a part of the results.

Experiments:
Assay in all cases: glycan array binding signal (z-score within array); higher = stronger binding
Details in all cases: glycan notation: IUPAC condensed, linker removed
[1] = molecular target: Gal(b1-3)GlcNAc(b1-6)[Gal(b1-3)]GalNAc
Method in brief: (§1)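 From the Consortium for Functional Glycomics database, 3228 arrays were curated, keeping only those whose protein sequence was available. Binding is given as a within-array Z-score averaged across arrays sharing a protein sequence and across linkers. Negative Z-scores can be read as non-binding.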

Gal(b1-3)GlcNAc6S = molecular target: Gal(b1-3)GlcNAc6S
Method in brief: as §1

[2] = molecular target: Gal(b1-3)[Fuc(a1-4)]GlcNAc
Method in brief: as §1

[3] = molecular target: Gal(b1-3)[Fuc(a1-4)]GlcNAc(b1-2)Man
Method in brief: as §1

[4] = molecular target: Gal(b1-3)[Fuc(a1-4)]GlcNAc(b1-2)Man(a1-3)[Gal(b1-3)[Fuc(a1-4)]GlcNAc(b1-2)Man(a1-6)]Man(b1-4)GlcNAc(b1-4)[Fuc(a1-6)]GlcNAc
Method in brief: as §1

[5] = molecular target: Gal(b1-3)[Fuc(a1-4)]GlcNAc(b1-3)Gal(b1-3)[Fuc(a1-4)]GlcNAc
Method in brief: as §1

[6] = molecular target: Gal(b1-3)[Fuc(a1-4)]GlcNAc(b1-3)Gal(b1-4)[Fuc(a1-3)]GlcNAc
Method in brief: as §1

[7] = molecular target: Gal(b1-3)[Fuc(a1-4)]GlcNAc(b1-6)GalNAc
Method in brief: as §1

[8] = molecular target: Gal(b1-3)[GlcNAc(b1-6)]GalNAc
Method in brief: as §1

[9] = molecular target: Gal(b1-3)[Neu5Ac(a2-6)]GalNAc
Method in brief: as §1

[10] = molecular target: Gal(b1-3)[Neu5Ac(a2-6)]GlcNAc(b1-4)Gal(b1-4)Glc
Method in brief: as §1

[11] = molecular target: Gal(b1-3)[Neu5Ac(b2-6)]GalNAc
Method in brief: as §1

Gal(b1-4)Gal = molecular target: Gal(b1-4)Gal
Method in brief: as §1

[12] = molecular target: Gal(b1-4)GalNAc(a1-3)[Fuc(a1-2)]Gal(b1-4)GlcNAc
Method in brief: as §1

[13] = molecular target: Gal(b1-4)GalNAc(b1-3)[Fuc(a1-2)]Gal(b1-4)GlcNAc
Method in brief: as §1

Gal(b1-4)Glc = molecular target: Gal(b1-4)Glc
Method in brief: as §1

Gal(b1-4)Glc6S = molecular target: Gal(b1-4)Glc6S
Method in brief: as §1

Gal(b1-4)GlcNAc = molecular target: Gal(b1-4)GlcNAc
Method in brief: as §1

[14] = molecular target: Gal(b1-4)GlcNAc(a1-6)Gal(b1-4)GlcNAc
Method in brief: as §1

Gal(b1-4)GlcNAc(b1-2)Man = molecular target: Gal(b1-4)GlcNAc(b1-2)Man
Method in brief: as §1

[15] = molecular target: Gal(b1-4)GlcNAc(b1-2)Man(a1-3)Man(b1-4)GlcNAc(b1-4)GlcNAc
Method in brief: as §1

[16] = molecular target: Gal(b1-4)GlcNAc(b1-2)Man(a1-3)[Gal(b1-4)GlcNAc(b1-2)Man(a1-6)]Man(b1-4)GlcNAc(b1-4)GlcNAc
Method in brief: as §1

[17] = molecular target: Gal(b1-4)GlcNAc(b1-2)Man(a1-3)[Gal(b1-4)GlcNAc(b1-2)Man(a1-6)]Man(b1-4)GlcNAc(b1-4)[Fuc(a1-6)]GlcNAc
Method in brief: as §1

[18] = molecular target: Gal(b1-4)GlcNAc(b1-2)Man(a1-3)[Gal(b1-4)GlcNAc(b1-2)Man(a1-6)][Gal(b1-4)GlcNAc(b1-4)]Man(b1-4)GlcNAc(b1-4)[Fuc(a1-6)]GlcNAc
Method in brief: as §1

[19] = molecular target: Gal(b1-4)GlcNAc(b1-2)Man(a1-3)[Gal(b1-4)GlcNAc(b1-2)Man(a1-6)][GlcNAc(b1-4)]Man(b1-4)GlcNAc(b1-4)[Fuc(a1-6)]GlcNAc
Method in brief: as §1

[20] = molecular target: Gal(b1-4)GlcNAc(b1-2)Man(a1-3)[GlcNAc(b1-2)Man(a1-6)]Man(b1-4)GlcNAc(b1-4)GlcNAc
Method in brief: as §1

[21] = molecular target: Gal(b1-4)GlcNAc(b1-2)Man(a1-3)[GlcNAc(b1-4)][Gal(b1-4)GlcNAc(b1-2)Man(a1-6)]Man(b1-4)GlcNAc(b1-4)GlcNAc
Method in brief: as §1

[22] = molecular target: Gal(b1-4)GlcNAc(b1-2)Man(a1-3)[Man(a1-6)]Man(b1-4)GlcNAc(b1-4)GlcNAc
Method in brief: as §1

[23] = molecular target: Gal(b1-4)GlcNAc(b1-2)Man(a1-6)Man(b1-4)GlcNAc(b1-4)GlcNAc
Method in brief: as §1

[24] = molecular target: Gal(b1-4)GlcNAc(b1-2)Man(a1-6)[GlcNAc(b1-2)Man(a1-3)]Man(b1-4)GlcNAc(b1-4)GlcNAc
Method in brief: as §1

[25] = molecular target: Gal(b1-4)GlcNAc(b1-2)Man(a1-6)[Man(a1-3)]Man(b1-4)GlcNAc(b1-4)GlcNAc
Method in brief: as §1

[26] = molecular target: Gal(b1-4)GlcNAc(b1-2)[Gal(b1-4)GlcNAc(b1-4)]Man(a1-3)[Gal(b1-4)GlcNAc(b1-2)Man(a1-6)]Man(b1-4)GlcNAc(b1-4)GlcNAc
Method in brief: as §1

[27] = molecular target: Gal(b1-4)GlcNAc(b1-2)[Gal(b1-4)GlcNAc(b1-4)]Man(a1-3)[Gal(b1-4)GlcNAc(b1-2)[Gal(b1-4)GlcNAc(b1-6)]Man(a1-6)]Man(b1-4)GlcNAc(b1-4)GlcNAc
Method in brief: as §1

[28] = molecular target: Gal(b1-4)GlcNAc(b1-2)[Gal(b1-4)GlcNAc(b1-4)]Man(a1-3)[GlcNAc(b1-4)][Gal(b1-4)GlcNAc(b1-2)Man(a1-6)]Man(b1-4)GlcNAc(b1-4)GlcNAc
Method in brief: as §1

[29] = molecular target: Gal(b1-4)GlcNAc(b1-2)[Gal(b1-4)GlcNAc(b1-4)]Man(a1-3)[GlcNAc(b1-4)][Gal(b1-4)GlcNAc(b1-2)[Gal(b1-4)GlcNAc(b1-6)]Man(a1-6)]Man(b1-4)GlcNAc(b1-4)GlcNAc
Method in brief: as §1

[30] = molecular target: Gal(b1-4)GlcNAc(b1-2)[Gal(b1-4)GlcNAc(b1-6)]Man(a1-6)[Gal(b1-4)GlcNAc(b1-2)Man(a1-3)]Man(b1-4)GlcNAc(b1-4)GlcNAc
Method in brief: as §1

[31] = molecular target: Gal(b1-4)GlcNAc(b1-2)[Gal(b1-4)GlcNAc(b1-6)]Man(a1-6)[Gal(b1-4)GlcNAc(b1-2)Man(a1-3)]Man(b1-4)GlcNAc(b1-4)[Fuc(a1-6)]GlcNAc
Method in brief: as §1

B1: PX9961M-bvu-482-23-482 (Bacteroides vulgatus) (protein)
chain: WLDLAPSTQVDTETSINVLSDIEFTLNGIYSTMQSSDAYSGRLVYYGDVTGDDMQAVSSTKRTGNYYRFNFTKDNGPSSHWSYLYSIIQNCNLILMNVDKLSIDEDETEYKNDLKGQALAIRGMALFDLTRIFGYPYLKDNGASLGVPIVKELSTIDSKPARNTVAECYTEIISDLKNSTELLSGDFNKGKVNRWAAMTLLSRVYLYKGEYNEALTMAENAIKGAEKEGYALWTNEEYPTAWGNDASASNPGEILFEIVNLTTDSPGKESMGYLNSYNGYDDMCITCSFYQLLKKDPKDVRLKILSFDKKYYAYVNKYQPQQGENITDANIPLIRLSEAYLNAAEAAVQTGDNAKAVKYLNSIVQRANPENSVEGKTLTLENVLDERRKELVAEGHRMYDVIRNGMTVKRIDVKDSDINKTKHNTAYMEYDWNFHKILLPIPKKEMDANPNMKQNPGYVD
[1]
  glycan array binding signal (z-score): -0.362
Gal(b1-3)GlcNAc6S
  glycan array binding signal (z-score): 0.004
[2]
  glycan array binding signal (z-score): 1.63
[3]
  glycan array binding signal (z-score): 1.31
[4]
  glycan array binding signal (z-score): -0.174
[5]
  glycan array binding signal (z-score): -0.553
[6]
  glycan array binding signal (z-score): -0.266
[7]
  glycan array binding signal (z-score): -0.307
[8]
  glycan array binding signal (z-score): 0.166
[9]
  glycan array binding signal (z-score): -0.734
[10]
  glycan array binding signal (z-score): -0.052
[11]
  glycan array binding signal (z-score): -0.587
Gal(b1-4)Gal
  glycan array binding signal (z-score): 0.253
[12]
  glycan array binding signal (z-score): -0.942
[13]
  glycan array binding signal (z-score): -0.62
Gal(b1-4)Glc
  glycan array binding signal (z-score): -0.171
Gal(b1-4)Glc6S
  glycan array binding signal (z-score): -0.022
Gal(b1-4)GlcNAc
  glycan array binding signal (z-score): -0.389
[14]
  glycan array binding signal (z-score): 1.66
Gal(b1-4)GlcNAc(b1-2)Man
  glycan array binding signal (z-score): 0.485
[15]
  glycan array binding signal (z-score): 0.327
[16]
  glycan array binding signal (z-score): -0.313
[17]
  glycan array binding signal (z-score): 0.373
[18]
  glycan array binding signal (z-score): -0.321
[19]
  glycan array binding signal (z-score): 0.416
[20]
  glycan array binding signal (z-score): -0.875
[21]
  glycan array binding signal (z-score): -1.01
[22]
  glycan array binding signal (z-score): 0.437
[23]
  glycan array binding signal (z-score): 0.003
[24]
  glycan array binding signal (z-score): 0.086
[25]
  glycan array binding signal (z-score): -0.551
[26]
  glycan array binding signal (z-score): 0.427
[27]
  glycan array binding signal (z-score): 1.23
[28]
  glycan array binding signal (z-score): -0.598
[29]
  glycan array binding signal (z-score): 0.295
[30]
  glycan array binding signal (z-score): 0.514
[31]
  glycan array binding signal (z-score): 0.302
